# Patent publication US20100004193A1, “COMBINATION THERAPY” (FONDAZIONE PER LA RICERCA BIOMEDICA AVANZATA ONLUS - …, priority 2008, published 2010)
# For at least one compound, name, drawing or mass did not settle the structure.
# Key:
# Type in all cases: cell-based
# T-24 cells = assay: Ara-C dose response, cell death by propidium iodide dye exclusion, with or without G418
# [1] = test system: clones of T-24, HT-1376 and HT-1197 bladder cancer cell lines; assay: Cell death by propidium iodide dye exclusion (flow cytometry) in Gem-sensitive and Gem-resistant clones; conditions: 2 sensitive and 2 resistant clones per clone set; Gem 30 nM 2 days (T-24), 80 nM 4 days (HT-1376), 120 nM 5 days (HT-1197); G418 250 or 70 μg/ml, cycloheximide 500 ng/ml, rapamycin 10 nM
# Experimental: Cell culture, cell death assays and growth assays—The T-24 and HT-1376 cell lines were purchased from the German Collection of Microorganisms and Cell Cultures and were cultivated in DMEM, high glucose, containing 10% Fetal Bovine Serum (FBS) or Minimum Essential Medium with 10% FBS and non-essential amino acids, respectively. HT-1197 was a gift from Bioxell (Milano) and was cultured like HT-1376. […] HT-1376 and its clones were incubated for 4 days and HT-1197 for 5 days with Gem including one medium change after 2 days. The percentage of dead cells that took up propidium iodide was determined using flow cytometry. […] Staining with Annexin-V-FITC was performed according to the manufacturer's description (Roche). To assess the cell number by staining with 3-(4,5-Dimethylthiazol-2-yl)-2,5-diphenyltetrazolium bromide (MTT), MTT was added at 500 μg/ml. After 2 hours, precipitate was solubilized by addition of 0.04N HCl/Isopropanol. Absorbance was read at 570 nm with reference at 650 nm.
# Generation of Gemcitabine-resistant clones and stable cell lines—The T-24 cell line was incubated with 120 nM Gem for 3 days, HT-1376 with 160 nM Gem and HT-1197 with 1.6 μM for 7 days. […] Subsequently, the medium was changed for normal growth medium without Gem and the cells were grown for additional 1 to 3 weeks. […]
# FIG. 5. […] Cell death was measured by propidium iodide dye exclusion using flow cytometry. […]
# [2] = test system: T-24, HT-1376 and HT-1197 cell lines and clones; assay: Metabolic labelling of protein synthesis with 35S-methionine/cysteine; conditions: parental cell lines; Gem 30 nM 1 day (T-24), 80 nM 3 days (HT-1376), 120 nM 3 days (HT-1197); G418 250/80/70 μg/ml, CHX 500 ng/ml, rapamycin 10 nM
# Experimental: Cells were labelled for 1.5 hours in growth medium without methionine and cysteine supplemented with 30 μCi/ml [^35S]-methionine/cysteine. Subsequently, the proteins were precipitated with TCA as described previously (Zhang et al., 2004). The incorporated radioactivity was expressed as counts/μg protein.
# FIG. 3. Protein synthesis in the presence of Gem is higher in the resistant clones. […] Medium was removed and replaced for 1.5 h by medium containing 30 μCi/ml ^35S-methionine/cysteine (pulse). […] The reduction in radioactively labelled proteins due to protein degradation during the chase was significant as indicated. (B) The three parental cell lines and HT-1197 and T-24 stably expressing Bcl-2 were incubated with Gem as in (A) in the presence of 40 μM (T-24, HT-1376) or 80 μM z-VAD-fmk (HT-1197) or vehicle (DMSO). Subsequently, the cells were labelled as before. (C) Two sensitive and two resistant clones of each clone set were incubated and labelled as in (A). […] Results are from two independent experiments in duplicate. Error bars depict S.E.M. **P<0.01.
# FIG. 5. Protein synthesis inhibitors diminish Gem resistance. (A) Two sensitive and two resistant clones of each clone set were incubated with Gem (T-24: 30 nM, 2 days; HT-1376: 80 nM, 4 days; HT-1197: 120 nM, 5 days). […] Cell death was measured by propidium iodide dye exclusion using flow cytometry. […]
# [3] = test system: T-24, HT-1376 and HT-1197 parental cell lines; assay: Long term clonogenic survival assay (selection of Gem-resistant clones, crystal violet); conditions: G418 250 μg/ml (T-24), 80 μg/ml (HT-1376), 70 μg/ml (HT-1197)
smiles,measurement,setting,value
CN[C@@H]1[C@@H](O)[C@@H](O[C@@H]2[C@@H](O)[C@H](O[C@H]3O[C@H]([C@@H](C)O)[C@@H](O)[C@H](O)[C@H]3N)[C@@H](N)C[C@H]2N)OC[C@]1(C)O [G418],Cell death with G418 only,"T-24 cells; T-24, 0.25 mg/ml G418, 2 days",no increase in cell death
same,Effect of G418 on Ara-C-mediated cell death,"T-24 cells; T-24, Ara-C 2 days, 0.25 mg/ml G418",greatly enhanced Ara-C-mediated cell death
same,Gem-induced cell death on concomitant treatment with a protein synthesis inhibitor,[1],more cell death in the resistant clones than either treatment alone
same,Protein synthesis in the presence of Gem plus a protein synthesis inhibitor,[2],further downregulate protein synthesis
same,Cell survival with G418 alone,[3],did not influence cell survival
same,Survival of resistant clones with G418 combined with Gem,[3]; Gem as for selection of resistant clones,completely prevented the survival of resistant clones
